# Publication PMC4148193, “Chromatin Insulator Factors Involved in Long-Range DNA Interactions and Their Role in the Folding of the Drosophila Genome” (PLoS Genetics, 2014)
# Chains of the proteins cited; added tags and fusions are not shown. Lines headed by an entry give the natural chain unless they say otherwise; changes in a name come on top.
# UniProt Q24478: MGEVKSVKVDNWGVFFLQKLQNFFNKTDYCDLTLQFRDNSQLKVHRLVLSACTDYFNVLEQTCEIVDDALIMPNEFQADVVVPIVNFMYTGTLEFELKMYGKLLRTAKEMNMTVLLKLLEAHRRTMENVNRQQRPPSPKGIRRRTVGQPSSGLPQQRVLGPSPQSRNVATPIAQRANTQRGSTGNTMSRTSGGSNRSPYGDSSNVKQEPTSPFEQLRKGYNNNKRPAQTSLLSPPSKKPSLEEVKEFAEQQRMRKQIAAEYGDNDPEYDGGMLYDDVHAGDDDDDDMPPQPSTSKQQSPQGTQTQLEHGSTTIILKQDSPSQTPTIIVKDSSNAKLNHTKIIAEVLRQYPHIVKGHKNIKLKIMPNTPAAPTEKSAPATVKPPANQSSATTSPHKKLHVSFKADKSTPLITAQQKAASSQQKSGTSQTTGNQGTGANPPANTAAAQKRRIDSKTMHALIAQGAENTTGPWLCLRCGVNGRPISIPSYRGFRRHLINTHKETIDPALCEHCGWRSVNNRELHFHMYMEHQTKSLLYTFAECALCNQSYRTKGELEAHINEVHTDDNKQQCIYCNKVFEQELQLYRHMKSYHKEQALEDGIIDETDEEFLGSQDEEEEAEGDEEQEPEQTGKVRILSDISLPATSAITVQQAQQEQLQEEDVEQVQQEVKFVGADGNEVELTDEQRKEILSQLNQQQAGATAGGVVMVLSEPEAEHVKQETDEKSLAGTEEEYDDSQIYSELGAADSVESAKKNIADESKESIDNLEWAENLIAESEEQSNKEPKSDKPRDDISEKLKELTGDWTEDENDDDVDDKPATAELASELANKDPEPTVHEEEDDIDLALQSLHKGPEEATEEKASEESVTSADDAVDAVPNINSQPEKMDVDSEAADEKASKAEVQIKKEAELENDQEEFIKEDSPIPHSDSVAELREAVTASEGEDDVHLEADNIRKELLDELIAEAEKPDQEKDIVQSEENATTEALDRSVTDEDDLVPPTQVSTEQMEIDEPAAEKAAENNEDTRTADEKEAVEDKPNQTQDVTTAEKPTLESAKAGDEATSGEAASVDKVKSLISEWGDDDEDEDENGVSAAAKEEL
# Tests used:
# BEAF32 (BEAF32B) = BEAF32 (BEAF32B) (UniProt Q94513); experiment: EMSA; conditions: 200 nM BEAF32, preferential shift; EMSA: 150 mM NaCl, 30 mM Tris/HCl pH 7.4, 5 mM mercaptoethanol (supershift: 10 min on ice); recombinant protein; residues 1-282; protein details: N-term MBP, C-term 6xHis; label: SYBR Safe stain; probe letters rebuilt from the primers and the genome; part of a longer molecule
# CP190 = CP190 (UniProt Q24478); experiment: EMSA; conditions: 100-400 nM CP190; EMSA: 150 mM NaCl, 30 mM Tris/HCl pH 7.4, 5 mM mercaptoethanol (supershift: 10 min on ice); recombinant protein; residues 1-1096; protein details: N-term 6xHis; label: SYBR Safe stain; probe letters rebuilt from the primers and the genome; part of a longer molecule
# Chromator [1] = molecular target: T1, Chromator (UniProt Q86BS3); experiment: EMSA; conditions: 450-900 nM Chromator; EMSA: 150 mM NaCl, 30 mM Tris/HCl pH 7.4, 5 mM mercaptoethanol (supershift: 10 min on ice); recombinant protein; residues 1-926; protein details: N-term 6xHis; label: SYBR Safe stain; probe letters rebuilt from the primers and the genome; part of a longer molecule
# T1 sequence (looked up): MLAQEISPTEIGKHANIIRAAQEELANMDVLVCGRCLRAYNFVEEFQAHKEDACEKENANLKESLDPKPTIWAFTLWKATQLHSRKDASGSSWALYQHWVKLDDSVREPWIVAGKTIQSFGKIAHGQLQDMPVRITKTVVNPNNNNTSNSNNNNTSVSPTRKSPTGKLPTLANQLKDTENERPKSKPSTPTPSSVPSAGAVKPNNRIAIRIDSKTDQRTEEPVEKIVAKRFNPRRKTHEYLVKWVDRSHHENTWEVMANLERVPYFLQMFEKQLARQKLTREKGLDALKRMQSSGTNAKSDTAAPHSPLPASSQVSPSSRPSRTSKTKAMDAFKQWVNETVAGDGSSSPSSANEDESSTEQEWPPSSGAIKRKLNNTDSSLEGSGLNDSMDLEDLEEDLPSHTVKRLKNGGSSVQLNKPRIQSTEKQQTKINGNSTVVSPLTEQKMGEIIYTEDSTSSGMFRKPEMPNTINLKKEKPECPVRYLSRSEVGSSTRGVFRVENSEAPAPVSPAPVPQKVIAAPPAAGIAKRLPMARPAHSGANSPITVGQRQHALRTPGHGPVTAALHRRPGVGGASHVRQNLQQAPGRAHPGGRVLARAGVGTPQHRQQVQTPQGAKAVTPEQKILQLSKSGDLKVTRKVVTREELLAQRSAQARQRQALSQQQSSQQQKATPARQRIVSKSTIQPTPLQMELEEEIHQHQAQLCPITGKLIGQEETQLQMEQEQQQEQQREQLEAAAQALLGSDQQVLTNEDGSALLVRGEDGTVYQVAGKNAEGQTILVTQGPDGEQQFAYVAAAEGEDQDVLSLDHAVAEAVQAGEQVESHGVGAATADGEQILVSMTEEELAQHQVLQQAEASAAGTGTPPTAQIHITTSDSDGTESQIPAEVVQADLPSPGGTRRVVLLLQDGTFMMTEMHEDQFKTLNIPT
# Chromator [2] = molecular target: T1, Chromator; experiment: fluorescence anisotropy; conditions: Hill n=2±0.2, one value given, both fragments bound with no specificity; FA/FCS: 30 mM Tris/HCl pH 7.5, 100 mM NaCl, 20 uM ZnSO4, 5 mM mercaptoethanol, 0.01 mg/ml BSA, 0.004% Tween20, 2.5 nM DNA; recombinant protein; residues 1-926; protein details: N-term 6xHis; label: 5'-Cy3B (Table S5: cy3) on forward strand
Sequence,binding result (BEAF32 (BEAF32B)),binding result (CP190),binding result (Chromator [1]),Kd (Chromator [2]) [nM]
GGAAATCACGTAACATTCGCCGAACAGCTGGCGACCATTTATCGATAGCGATACTCTTTTGGCGCCTGGATCTATCGACACTATGGCCTGCAATGTGAACATCTAAGGCTGCCCCCACAGATAAATTTAAAGTAAACATAATATAGATATGCACTCGTTAAGCGAATTAAAATTAGTTTTGAAATGAAACAAAAAAATCTAGAATTATTGGAAATTCCAAAGTTCGTCTGATAAATTACGCATAAATACAATTAAAATAAATATGAATATATAAAAATTCCCAATATAAAGGATCCCAAATCCCTCTCAATTTTACCGTCATTCATATTTTTTGTAAATTAAGTTGGCAATTAAGAAAAATGTTTAGCACTACCTATCGGATGACAAGCGTGTCACGAAAATATCGATGCTATCGCGCTGACTTCTCAGCTCTAGCTAGCAGTGTCA (double strand) [DNAtudor restriction fragment 1627 bp],binds,binds,binds,–
GGACAGGTATTGTGCCATACTGACCACATCGTCTTGGTCTATAAGCTCCACGACATCC (double strand) [DNANS],–,–,–,360

# For at least one entry, the source does not settle the construct or the ends of the probe. For some of these results: Protein sequences can lack the tags named with them.
